# From the supplement of paper PMC8728848
# This is one part of the list.
# Columns and labels:
# Test in all cases: glycan array binding signal (z-score within array); higher = stronger binding
# Details in all cases: glycan notation: IUPAC condensed, linker removed
# Gal(a1-3)GalNAc = biological target: Gal(a1-3)GalNAc
# Procedure, shortened: (§1)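 The Consortium for Functional Glycomics database supplied 3228 glycan arrays, of which those lacking an available protein sequence were dropped. The binding signal, a within-array Z-score, was averaged across arrays of the same protein sequence and across linkers. Negative scores can be read as non-binding.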
# [1] = biological target: Gal(a1-3)[Gal(a1-4)]Gal(b1-4)GlcNAc
# Procedure, shortened: as §1
# [2] = biological target: Gal(a1-4)Gal(b1-3)GlcNAc(b1-2)Man(a1-3)[Gal(a1-4)Gal(b1-3)GlcNAc(b1-2)Man(a1-6)]Man(b1-4)GlcNAc(b1-4)GlcNAc
# Procedure, shortened: as §1
# Gal(a1-4)Gal(b1-4)Glc = biological target: Gal(a1-4)Gal(b1-4)Glc
# Procedure, shortened: as §1
# Gal(a1-4)Gal(b1-4)GlcNAc = biological target: Gal(a1-4)Gal(b1-4)GlcNAc
# Procedure, shortened: as §1
# [3] = biological target: Gal(a1-4)Gal(b1-4)GlcNAc(b1-2)Man(a1-3)[Gal(a1-4)Gal(b1-4)GlcNAc(b1-2)Man(a1-6)]Man(b1-4)GlcNAc(b1-4)GlcNAc
# Procedure, shortened: as §1
# [4] = biological target: Gal(a1-4)Gal(b1-4)GlcNAc(b1-3)Gal(b1-4)Glc
# Procedure, shortened: as §1
# Gal(a1-4)GlcNAc = biological target: Gal(a1-4)GlcNAc
# Procedure, shortened: as §1
# Gal(a1-6)Glc = biological target: Gal(a1-6)Glc
# Procedure, shortened: as §1
# Gal(b1-2)Gal = biological target: Gal(b1-2)Gal
# Procedure, shortened: as §1
# Gal(b1-3)Gal = biological target: Gal(b1-3)Gal
# Procedure, shortened: as §1
# Gal(b1-3)Gal(b1-4)GlcNAc = biological target: Gal(b1-3)Gal(b1-4)GlcNAc
# Procedure, shortened: as §1
# [5] = biological target: Gal(b1-3)Gal(b1-4)GlcNAc(b1-2)Man(a1-3)[Gal(b1-3)Gal(b1-4)GlcNAc(b1-2)Man(a1-6)]Man(b1-4)GlcNAc(b1-4)GlcNAc
# Procedure, shortened: as §1
# Gal(b1-3)GalNAc = biological target: Gal(b1-3)GalNAc
# Procedure, shortened: as §1
# [6] = biological target: Gal(b1-3)GalNAc(a1-3)[Fuc(a1-2)]Gal(b1-4)Glc
# Procedure, shortened: as §1
# [7] = biological target: Gal(b1-3)GalNAc(a1-3)[Fuc(a1-2)]Gal(b1-4)GlcNAc
# Procedure, shortened: as §1
# [8] = biological target: Gal(b1-3)GalNAc(b1-3)Gal(a1-4)Gal(b1-4)Glc
# Procedure, shortened: as §1
# [9] = biological target: Gal(b1-3)GalNAc(b1-4)Gal(b1-4)Glc
# Procedure, shortened: as §1
# [10] = biological target: Gal(b1-3)GalNAc(b1-4)[Neu5Ac(a2-3)]Gal(b1-4)Glc
# Procedure, shortened: as §1
# Gal(b1-3)GlcNAc = biological target: Gal(b1-3)GlcNAc
# Procedure, shortened: as §1
# [11] = biological target: Gal(b1-3)GlcNAc(a1-6)Gal(b1-4)GlcNAc
# Procedure, shortened: as §1
# [12] = biological target: Gal(b1-3)GlcNAc(b1-2)Man(a1-3)[Gal(b1-3)GlcNAc(b1-2)Man(a1-6)]Man(b1-4)GlcNAc(b1-4)GlcNAc
# Procedure, shortened: as §1
# [13] = biological target: Gal(b1-3)GlcNAc(b1-2)Man(a1-3)[Gal(b1-3)GlcNAc(b1-2)Man(a1-6)]Man(b1-4)GlcNAc(b1-4)[Fuc(a1-6)]GlcNAc
# Procedure, shortened: as §1
# [14] = biological target: Gal(b1-3)GlcNAc(b1-3)Gal(b1-3)GlcNAc
# Procedure, shortened: as §1
# [15] = biological target: Gal(b1-3)GlcNAc(b1-3)Gal(b1-4)Glc
# Procedure, shortened: as §1
# [16] = biological target: Gal(b1-3)GlcNAc(b1-3)Gal(b1-4)GlcNAc
# Procedure, shortened: as §1
# [17] = biological target: Gal(b1-3)GlcNAc(b1-3)Gal(b1-4)GlcNAc(b1-6)[Gal(b1-3)GlcNAc(b1-3)]Gal(b1-4)Glc
# Procedure, shortened: as §1
# [18] = biological target: Gal(b1-3)GlcNAc(b1-3)Gal(b1-4)[Fuc(a1-3)]GlcNAc(b1-6)[Gal(b1-3)GlcNAc(b1-3)]Gal(b1-4)Glc
# Procedure, shortened: as §1
# [19] = biological target: Gal(b1-3)GlcNAc(b1-3)GalNAc
# Procedure, shortened: as §1
# [20] = biological target: Gal(b1-3)GlcNAc(b1-6)Gal(b1-4)GlcNAc
# Procedure, shortened: as §1
# [21] = biological target: Gal(b1-3)[Fuc(a1-4)]GlcNAc
# Procedure, shortened: as §1
# [22] = biological target: Gal(b1-3)[Fuc(a1-4)]GlcNAc(b1-2)Man(a1-3)[Gal(b1-3)[Fuc(a1-4)]GlcNAc(b1-2)Man(a1-6)]Man(b1-4)GlcNAc(b1-4)GlcNAc
# Procedure, shortened: as §1
# [23] = biological target: Gal(b1-3)[Fuc(a1-4)]GlcNAc(b1-2)Man(a1-3)[Gal(b1-3)[Fuc(a1-4)]GlcNAc(b1-2)Man(a1-6)]Man(b1-4)GlcNAc(b1-4)[Fuc(a1-6)]GlcNAc
# Procedure, shortened: as §1
# [24] = biological target: Gal(b1-3)[Fuc(a1-4)]GlcNAc(b1-3)Gal(b1-3)[Fuc(a1-4)]GlcNAc
# Procedure, shortened: as §1
# [25] = biological target: Gal(b1-3)[Fuc(a1-4)]GlcNAc(b1-3)Gal(b1-4)GlcNAc
# Procedure, shortened: as §1
# [26] = biological target: Gal(b1-3)[Fuc(a1-4)]GlcNAc(b1-3)Gal(b1-4)[Fuc(a1-3)]GlcNAc
# Procedure, shortened: as §1
# [27] = biological target: Gal(b1-3)[GlcNAc(b1-6)]GalNAc
# Procedure, shortened: as §1
binder,measurement,setting,value
"PEB3 (Campylobacter jejuni), Q0PBL7 (protein) MKKIITLFGACALAFSMANADVNLYGPGGPHTALKDIANKYSEKTGVKVNVNFGPQATWFEKAKKDADILFGASDQSALAIASDFGKDFNVSKIKPLYFREAIILTQKGNPLKIKGLKDLANKKVRIVVPEGAGKSNTSGTGVWEDMIGRTQDIKTIQNFRNNIVAFVPNSGSARKLFAQDQADAWITWIDWSKSNPDIGTAVAIEKDLVVYRTFNVIAKEGASKETQDFIAYLSSKEAKEIFKKYGWRE",glycan array binding signal (z-score),Gal(a1-3)GalNAc,0.696
same,glycan array binding signal (z-score),[1],-0.605
same,glycan array binding signal (z-score),[2],1.73
same,glycan array binding signal (z-score),Gal(a1-4)Gal(b1-4)Glc,-0.347
same,glycan array binding signal (z-score),Gal(a1-4)Gal(b1-4)GlcNAc,-0.621
same,glycan array binding signal (z-score),[3],1.86
same,glycan array binding signal (z-score),[4],-0.433
same,glycan array binding signal (z-score),Gal(a1-4)GlcNAc,0.1
same,glycan array binding signal (z-score),Gal(a1-6)Glc,-0.482
same,glycan array binding signal (z-score),Gal(b1-2)Gal,-0.787
same,glycan array binding signal (z-score),Gal(b1-3)Gal,-1.46
same,glycan array binding signal (z-score),Gal(b1-3)Gal(b1-4)GlcNAc,-1.14
same,glycan array binding signal (z-score),[5],-0.139
same,glycan array binding signal (z-score),Gal(b1-3)GalNAc,0.026
same,glycan array binding signal (z-score),[6],-0.242
same,glycan array binding signal (z-score),[7],0.186
same,glycan array binding signal (z-score),[8],0.116
same,glycan array binding signal (z-score),[9],-0.495
same,glycan array binding signal (z-score),[10],0.437
same,glycan array binding signal (z-score),Gal(b1-3)GlcNAc,-0.448
same,glycan array binding signal (z-score),[11],-0.42
same,glycan array binding signal (z-score),[12],0.056
same,glycan array binding signal (z-score),[13],0.471
same,glycan array binding signal (z-score),[14],-0.637
same,glycan array binding signal (z-score),[15],0.239
same,glycan array binding signal (z-score),[16],-1.33
same,glycan array binding signal (z-score),[17],-0.921
same,glycan array binding signal (z-score),[18],0.098
same,glycan array binding signal (z-score),[19],-0.449
same,glycan array binding signal (z-score),[20],-0.898
same,glycan array binding signal (z-score),[21],-0.192
same,glycan array binding signal (z-score),[22],1.83
same,glycan array binding signal (z-score),[23],1.72
same,glycan array binding signal (z-score),[24],0.879
same,glycan array binding signal (z-score),[25],-0.218
same,glycan array binding signal (z-score),[26],-0.524
same,glycan array binding signal (z-score),[27],-0.504

# Another view of some results above:
binder | measurement | setting | value
PEB3 (Campylobacter jejuni), Q0PBL7 (protein) MKKIITLFGACALAFSMANADVNLYGPGGPHTALKDIANKYSEKTGVKVNVNFGPQATWFEKAKKDADILFGASDQSALAIASDFGKDFNVSKIKPLYFREAIILTQKGNPLKIKGLKDLANKKVRIVVPEGAGKSNTSGTGVWEDMIGRTQDIKTIQNFRNNIVAFVPNSGSARKLFAQDQADAWITWIDWSKSNPDIGTAVAIEKDLVVYRTFNVIAKEGASKETQDFIAYLSSKEAKEIFKKYGWRE | glycan array binding signal (z-score) | Gal(a1-4)Gal(b1-4)GlcNAc | -0.621
same | glycan array binding signal (z-score) | Gal(a1-6)Glc | -0.482
